According to article PMC9843051:
Results are given in words; binding and its absence hold for the method and conditions named. Binding seen in cells or lysates may run through a third protein. Some entries that bind do so weakly or less than the wild type. Blank lines part the entries; values can stand above or below the binder they belong to.

Sequences of proteins named here, by UniProt entry; tags and fusion partners are left off.
UniProt P06493: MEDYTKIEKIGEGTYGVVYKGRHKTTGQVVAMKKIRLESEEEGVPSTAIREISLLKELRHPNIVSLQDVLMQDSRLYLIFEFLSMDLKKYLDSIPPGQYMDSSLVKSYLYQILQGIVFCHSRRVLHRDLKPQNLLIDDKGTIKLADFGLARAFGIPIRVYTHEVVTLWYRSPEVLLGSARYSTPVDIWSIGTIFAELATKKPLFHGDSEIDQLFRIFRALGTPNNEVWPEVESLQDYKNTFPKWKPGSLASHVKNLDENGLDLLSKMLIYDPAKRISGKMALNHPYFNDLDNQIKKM

Tests used:
[1] = biological target: T1, outer dense fiber of sperm tails 2-like (ODF2L) (human (endogenous in EOC cell lines)) (UniProt Q9ULJ1); test: co-IP; reverse coimmunoprecipitation of endogenous proteins: immunoprecipitation against ODF2L or PKMYT1 from EOC cell lysate extracted 4 hours after G1-S release, followed by immunoblotting
T1 sequence: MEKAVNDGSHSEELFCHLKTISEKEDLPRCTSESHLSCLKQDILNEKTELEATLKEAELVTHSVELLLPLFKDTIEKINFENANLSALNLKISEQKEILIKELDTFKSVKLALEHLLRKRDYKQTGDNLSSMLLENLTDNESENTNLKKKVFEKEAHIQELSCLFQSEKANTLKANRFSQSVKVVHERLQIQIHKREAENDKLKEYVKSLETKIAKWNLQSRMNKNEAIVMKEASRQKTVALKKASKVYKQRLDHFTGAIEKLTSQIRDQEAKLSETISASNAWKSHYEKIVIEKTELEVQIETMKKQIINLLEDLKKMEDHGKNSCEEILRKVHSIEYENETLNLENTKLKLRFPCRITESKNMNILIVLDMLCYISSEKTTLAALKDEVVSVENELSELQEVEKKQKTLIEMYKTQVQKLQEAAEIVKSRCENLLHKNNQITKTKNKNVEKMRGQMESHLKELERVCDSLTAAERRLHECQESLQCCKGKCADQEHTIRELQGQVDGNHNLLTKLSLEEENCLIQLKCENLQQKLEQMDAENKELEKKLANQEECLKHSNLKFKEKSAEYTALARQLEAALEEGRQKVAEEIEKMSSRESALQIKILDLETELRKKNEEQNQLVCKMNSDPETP

[2] = biological target: CDK1 (human (endogenous in EOC cell lines)) (UniProt P06493); test: co-IP; immunoprecipitation of endogenous CDK1 from EOC cells, followed by immunoblotting; control cells and cells with ODF2L knockdown or PKMYT1 knockdown

binding [1]: binds
B1: PKMYT1 (enzyme, UniProt Q99640 1-499)
chain: MLERPPALAMPMPTEGTPPPLSGTPIPVPAYFRHAEPGFSLKRPRGLSRSLPPPPPAKGSIPISRLFPPRTPGWHQLQPRRVSFRGEASETLQSPGYDPSRPESFFQQSFQRLSRLGHGSYGEVFKVRSKEDGRLYAVKRSMSPFRGPKDRARKLAEVGSHEKVGQHPCCVRLEQAWEEGGILYLQTELCGPSLQQHCEAWGASLPEAQVWGYLRDTLLALAHLHSQGLVHLDVKPANIFLGPRGRCKLGDFGLLVELGTAGAGEVQEGDPRYMAPELLQGSYGTAADVFSLGLTILEVACNMELPHGGEGWQQLRQGYLPPEFTAGLSSELRSVLVMMLEPDPKLRATAEALLALPVLRQPRAWGVLWCMAAEALSRGWALWQALLALLCWLWHGLAHPASWLQPLGPPATPPGSPPCSLLLDSSLSSNWDDDSLGPSLSPEAVLARTVGSTSTPRSRCTPRDALDLSDINSEPPRGSFPSFEPRNLLSLFEDTLDPT

binding [2]: binds
B2: outer dense fiber of sperm tails 2-like (ODF2L) (protein, UniProt Q9ULJ1 1-636)
chain: T1 sequence
